Literature values, collected in patent US20250195498A1, “INHIBITOR OF CELLULAR PURINE NUCLEOTIDE SALVAGE PATHWAY ENZYME FOR USE IN THE TREATMENT AND/OR PREVENTION OF HELICOBACTER PYLORI INFECTION AND/OR DISEASE ASSOCIATED WITH SUCH INFECTION AND PHARMACEUTICAL COMPOSITION COMPRISING THE SAME” (UNIWERSYTET WARSZAWSKI, priority 2022, published 2025).
Values joined by “and” are separate entries in the source; they are usually repeats but may differ in a detail not shown here. Equal values may be shown once. At least one structure is not confirmed: it was looked up by name or label, or the drawing left a doubt. Marks after values point to notes of the source that are not given here.

Tested on: H. pylori
Details: MTZ according to EUCAST, 2021; kanamycin according to Irie et al., 1997; cited from earlier work

SMILES: NC[C@H]1O[C@H](O[C@H]2[C@H](O)[C@@H](O[C@H]3O[C@H](CO)[C@@H](O)[C@H](N)[C@H]3O)[C@H](N)C[C@@H]2N)[C@H](O)[C@@H](O)[C@@H]1O [Kanamycin, kanamycin]
- MIC (literature): 0.5-64 ^f μg/ml and 1.1-132 μM
